Laboratory results reported in publication doi:10.1101/2024.05.17.594667.
Results are given in words; binding and its absence hold for the method and conditions named. Binding seen in cells or lysates may run through a third protein. A result given as binding can be weak or reduced; the word gives no strength.

Target: recombinant protein containing the Rho binding domain (RBD) of Rhotekin conjugated to GST (UniProt Q9BST9)
Assay: pull-down

| Substance | binding |
| --- | --- |
| GFP-RhoC (from UniProt P08134 1-193) | binds |
| RhoC (from UniProt P08134 1-193) | binds |
| RhoA (from UniProt P61586 1-193) | binds |
| GFP-RhoC^R188S (from UniProt P08134 1-193) | binds |
| RhoB (from UniProt P62745 1-196) | binds |
| GFP-RhoC^R188A (from UniProt P08134 1-193) | binds |
